No constants are given. Whether binding was seen depends on the method and setting.
T1: Tailspike protein 3 of bacteriophage CBA120 (bacteriophage CBA120) (UniProt G3M191)
T1 sequence: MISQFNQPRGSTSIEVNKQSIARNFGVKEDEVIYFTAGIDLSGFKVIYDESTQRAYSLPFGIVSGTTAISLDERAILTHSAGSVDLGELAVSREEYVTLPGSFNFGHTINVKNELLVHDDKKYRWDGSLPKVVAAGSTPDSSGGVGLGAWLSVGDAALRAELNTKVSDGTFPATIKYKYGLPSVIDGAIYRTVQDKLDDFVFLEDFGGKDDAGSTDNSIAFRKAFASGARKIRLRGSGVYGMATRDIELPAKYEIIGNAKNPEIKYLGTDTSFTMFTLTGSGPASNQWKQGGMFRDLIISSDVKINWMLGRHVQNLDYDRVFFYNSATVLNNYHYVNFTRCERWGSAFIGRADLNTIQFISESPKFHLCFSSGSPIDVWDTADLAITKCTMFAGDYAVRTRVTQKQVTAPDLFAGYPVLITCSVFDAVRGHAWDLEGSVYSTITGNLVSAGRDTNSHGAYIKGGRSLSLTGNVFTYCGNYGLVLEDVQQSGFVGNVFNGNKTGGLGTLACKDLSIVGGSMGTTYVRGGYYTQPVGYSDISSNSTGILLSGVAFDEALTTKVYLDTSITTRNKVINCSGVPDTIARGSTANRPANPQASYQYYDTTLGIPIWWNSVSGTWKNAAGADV

T2: Tailspike protein 2 of bacteriophage CBA120 (bacteriophage CBA120) (UniProt G3M190)
T2 sequence: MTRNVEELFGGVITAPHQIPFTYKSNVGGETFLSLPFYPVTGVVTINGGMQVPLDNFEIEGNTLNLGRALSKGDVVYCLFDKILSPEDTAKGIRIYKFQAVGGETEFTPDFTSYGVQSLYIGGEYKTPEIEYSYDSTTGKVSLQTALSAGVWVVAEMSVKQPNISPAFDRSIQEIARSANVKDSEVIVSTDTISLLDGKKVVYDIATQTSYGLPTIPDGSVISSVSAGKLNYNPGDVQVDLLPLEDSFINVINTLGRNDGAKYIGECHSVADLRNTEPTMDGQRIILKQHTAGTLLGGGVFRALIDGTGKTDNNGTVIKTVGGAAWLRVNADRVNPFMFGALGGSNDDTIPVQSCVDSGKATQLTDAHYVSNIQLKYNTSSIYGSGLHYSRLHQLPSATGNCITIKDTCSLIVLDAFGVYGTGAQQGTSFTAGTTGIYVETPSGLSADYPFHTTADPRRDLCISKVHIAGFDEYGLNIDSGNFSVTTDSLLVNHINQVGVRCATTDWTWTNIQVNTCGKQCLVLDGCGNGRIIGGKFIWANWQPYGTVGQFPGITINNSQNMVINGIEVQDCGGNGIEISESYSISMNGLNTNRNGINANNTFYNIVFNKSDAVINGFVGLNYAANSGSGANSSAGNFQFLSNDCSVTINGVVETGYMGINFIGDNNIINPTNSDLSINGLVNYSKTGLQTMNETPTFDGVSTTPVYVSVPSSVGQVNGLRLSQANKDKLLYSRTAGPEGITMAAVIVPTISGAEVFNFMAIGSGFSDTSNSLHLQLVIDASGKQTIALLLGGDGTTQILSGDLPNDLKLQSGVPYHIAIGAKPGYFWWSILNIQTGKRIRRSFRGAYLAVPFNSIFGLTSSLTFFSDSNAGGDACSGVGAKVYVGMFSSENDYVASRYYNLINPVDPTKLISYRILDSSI


What was measured:
[1] = biological target: T1, Tailspike protein 3 of bacteriophage CBA120 (bacteriophage CBA120); experiment: AUC; sedimentation velocity of single proteins and of mixtures, PBS pH 7.4, 20 °C, absorbance at 280 nm, 30-50 krpm; c(s) by SEDFIT; Kd and koff by Lamm equation modelling with a two-site heterogeneous association model A + B + B = AB + B = ABB (A: TSP4-N335 hexamer, B: partner TSP trimer; two symmetric sites, no cooperativity); both purified
[2] = biological target: T2, Tailspike protein 2 of bacteriophage CBA120 (bacteriophage CBA120); experiment: as above

Binder | binding [1] | binding [2]
Tailspike protein 1 of bacteriophage CBA120 (natural protein, Homotrimer by SV (MWcalc of the trimer 248 kDa); also called TSP1) MNEMFSQGGKGSTGILTNKQAVARHFGVKQSEVVYFSVGVDLGGYKVIYDKETQRAYSLPVGIASGTTAVSLSTAAVLVHSAGSVDLGSLAVSREEYVTLPGSFDSGSTLNVKNELLTYTDGKYRWDGILPKTVAPGSTPASTGGVGLGAWISVGDASLRTQLANGDGSLIGIHPQGTLNNVLTVRTPEQYNAVGDGIADDTSKLKEMLSDINNVPETLPDAAAVNSYMEQVAVKIDLTKLYRFTETLYIPPGVSIEIPTSNFFTRECKQGLFYDPVDKNTAAISLMVYRKQPDGSYKLNKDVDYYPTGLDIDNGDAITCARKIDINNLNLITAPGVKVGVKWIGGAGCTTKGLSIGENTGSDITTARLPRVGLLQSASWGSIHENLRILYKTQGAVFIDSNGGAAVNNAYISRLGNTNGELEQAVYKPAGFTEVGDVAVTQFAGSEVKFNSPIIEQASFDFVHAGRDTDSYGLFMVDKPHIESSGGKKKHSFYLINTSSNVTLSGVGLSGQDPDLDSMYFLKNCPETARNVVRGQMPISGVKLVRGTGNYPTLVLDCTNMGSQFQFGEVGDIFYIKDVVGVKADTLYIDPVNGNNYNWGTNGTKPIRELTNIAKICQLFRCKSVYLNAGESVITSNTELPMVVFEGPGSLKANSGSSFLIKAGGTLSLIGLSGISTDGGHMFRVSTVEKVNIHTNCSVNAGAAYVVLSEVQGNIEYRQLFYSVNCSKYIGATAGQTIAGIMVKTATRPTGIDAAPVDGNVSLTYKIIES | no binding (tested: 1.5 μM each) | no binding (tested: 1.5 μM each)
Tailspike protein 3 of bacteriophage CBA120 (natural protein, UniProt G3M191 1-627, looked up, Trimer and hexamer by SV (MWcalc of the trimer 206 kDa); also called TSP3) MISQFNQPRGSTSIEVNKQSIARNFGVKEDEVIYFTAGIDLSGFKVIYDESTQRAYSLPFGIVSGTTAISLDERAILTHSAGSVDLGELAVSREEYVTLPGSFNFGHTINVKNELLVHDDKKYRWDGSLPKVVAAGSTPDSSGGVGLGAWLSVGDAALRAELNTKVSDGTFPATIKYKYGLPSVIDGAIYRTVQDKLDDFVFLEDFGGKDDAGSTDNSIAFRKAFASGARKIRLRGSGVYGMATRDIELPAKYEIIGNAKNPEIKYLGTDTSFTMFTLTGSGPASNQWKQGGMFRDLIISSDVKINWMLGRHVQNLDYDRVFFYNSATVLNNYHYVNFTRCERWGSAFIGRADLNTIQFISESPKFHLCFSSGSPIDVWDTADLAITKCTMFAGDYAVRTRVTQKQVTAPDLFAGYPVLITCSVFDAVRGHAWDLEGSVYSTITGNLVSAGRDTNSHGAYIKGGRSLSLTGNVFTYCGNYGLVLEDVQQSGFVGNVFNGNKTGGLGTLACKDLSIVGGSMGTTYVRGGYYTQPVGYSDISSNSTGILLSGVAFDEALTTKVYLDTSITTRNKVINCSGVPDTIARGSTANRPANPQASYQYYDTTLGIPIWWNSVSGTWKNAAGADV |  | no binding (tested: 1.5 μM each)

Reference: publication PMC8825819, “Structure of Escherichia coli O157:H7 bacteriophage CBA120 tailspike protein 4 baseplate anchor and tailspike assembly domains (TSP4-N)” (Scientific Reports, 2022)
